# Measured values from the supplement of paper PMC11438910.
# Some of the results follow. Only a few entries rise above the background.
# How the values were obtained:
# Test in all cases: fluorescence intensity of antibody binding to polysaccharide-coupled beads; higher = stronger binding
# [1] = target: pneumococcal polysaccharide Pn38
# [2] = target: pneumococcal polysaccharide Pn39
# [3] = target: pneumococcal polysaccharide Pn4
# [4] = target: pneumococcal polysaccharide Pn40
# [5] = target: pneumococcal polysaccharide Pn41A
# [6] = target: pneumococcal polysaccharide Pn41F
# [7] = target: pneumococcal polysaccharide Pn42
# [8] = target: pneumococcal polysaccharide Pn43
# [9] = target: pneumococcal polysaccharide Pn44
# [10] = target: pneumococcal polysaccharide Pn45
# [11] = target: pneumococcal polysaccharide Pn46
# [12] = target: pneumococcal polysaccharide Pn47A
# [13] = antibody concentration 81.7561 ng/mL
# [14] = antibody concentration 437.17 ng/mL
# [15] = antibody concentration 2337.65 ng/mL
# [16] = antibody concentration 12500 ng/mL
# [17] = antibody concentration 0.1 ng/mL
# [18] = antibody concentration 0.534724 ng/mL
# [19] = antibody concentration 2.8593 ng/mL
# [20] = antibody concentration 15.2894 ng/mL
binder,measurement,setting,value
4-173.2 (protein) chain 1: QLQLQESGPGLVKPSETLSLTCAVSGGSINSNYWSWIRQPPGKGLDWIGRISGSGGSTDYNPSLKSRVTISTDTSKTQFSLKLRSVTAADTAVYYCGRGSYQIDYWGQGILVTVSS chain 2: QAALTQPPSMSGSPGQSVTISCTGTSSDIGGYNRVSWYQQYPGKAPKLMIYEVSKRPSGVSDRFSGSKSGNTASLTISGLQAADEADYYCSSYAGSKALFGGGTRLTVL,fluorescence intensity,[1]; [13],24.2 MFI
same,fluorescence intensity,[1]; [14],26.2 MFI
same,fluorescence intensity,[1]; [15],29.5 MFI
same,fluorescence intensity,[1]; [16],55.5 MFI
same,fluorescence intensity,[2]; [17],19 MFI
same,fluorescence intensity,[2]; [18],19.2 MFI
same,fluorescence intensity,[2]; [19],17.5 MFI
same,fluorescence intensity,[2]; [20],17.5 MFI
same,fluorescence intensity,[2]; [13],20.2 MFI
same,fluorescence intensity,[2]; [14],20.5 MFI
same,fluorescence intensity,[2]; [15],23.5 MFI
same,fluorescence intensity,[2]; [16],80.5 MFI
same,fluorescence intensity,[3]; [17],18.2 MFI
same,fluorescence intensity,[3]; [18],18.5 MFI
same,fluorescence intensity,[3]; [19],19.5 MFI
same,fluorescence intensity,[3]; [20],18.2 MFI
same,fluorescence intensity,[3]; [13],18.2 MFI
same,fluorescence intensity,[3]; [14],24.5 MFI
same,fluorescence intensity,[3]; [15],30.5 MFI
same,fluorescence intensity,[3]; [16],43 MFI
same,fluorescence intensity,[4]; [17],14.8 MFI
same,fluorescence intensity,[4]; [18],16.8 MFI
same,fluorescence intensity,[4]; [19],16 MFI
same,fluorescence intensity,[4]; [20],17 MFI
same,fluorescence intensity,[4]; [13],18 MFI
same,fluorescence intensity,[4]; [14],18.5 MFI
same,fluorescence intensity,[4]; [15],25.5 MFI
same,fluorescence intensity,[4]; [16],120 MFI
same,fluorescence intensity,[5]; [17],23.5 MFI
same,fluorescence intensity,[5]; [18],22 MFI
same,fluorescence intensity,[5]; [19],25 MFI
same,fluorescence intensity,[5]; [20],23.5 MFI
same,fluorescence intensity,[5]; [13],24 MFI
same,fluorescence intensity,[5]; [14],24.8 MFI
same,fluorescence intensity,[5]; [15],24.2 MFI
same,fluorescence intensity,[5]; [16],30 MFI
same,fluorescence intensity,[6]; [17],13.5 MFI
same,fluorescence intensity,[6]; [18],13.5 MFI
same,fluorescence intensity,[6]; [19],13 MFI
same,fluorescence intensity,[6]; [20],12.5 MFI
same,fluorescence intensity,[6]; [13],13.8 MFI
same,fluorescence intensity,[6]; [14],15 MFI
same,fluorescence intensity,[6]; [15],16 MFI
same,fluorescence intensity,[6]; [16],22 MFI
same,fluorescence intensity,[7]; [17],11.5 MFI
same,fluorescence intensity,[7]; [18],11 MFI
same,fluorescence intensity,[7]; [19],12 MFI
same,fluorescence intensity,[7]; [20],12 MFI
same,fluorescence intensity,[7]; [13],12.5 MFI
same,fluorescence intensity,[7]; [14],13 MFI
same,fluorescence intensity,[7]; [15],13.5 MFI
same,fluorescence intensity,[7]; [16],40.2 MFI
same,fluorescence intensity,[8]; [17],15 MFI
same,fluorescence intensity,[8]; [18],16 MFI
same,fluorescence intensity,[8]; [19],15.5 MFI
same,fluorescence intensity,[8]; [20],15.5 MFI
same,fluorescence intensity,[8]; [13],18 MFI
same,fluorescence intensity,[8]; [14],19 MFI
same,fluorescence intensity,[8]; [15],39.5 MFI
same,fluorescence intensity,[8]; [16],292 MFI
same,fluorescence intensity,[9]; [17],25.2 MFI
same,fluorescence intensity,[9]; [18],25 MFI
same,fluorescence intensity,[9]; [19],26 MFI
same,fluorescence intensity,[9]; [20],24.5 MFI
same,fluorescence intensity,[9]; [13],26 MFI
same,fluorescence intensity,[9]; [14],26.5 MFI
same,fluorescence intensity,[9]; [15],28 MFI
same,fluorescence intensity,[9]; [16],39 MFI
same,fluorescence intensity,[10]; [17],10.8 MFI
same,fluorescence intensity,[10]; [18],11 MFI
same,fluorescence intensity,[10]; [19],10.5 MFI
same,fluorescence intensity,[10]; [20],11.5 MFI
same,fluorescence intensity,[10]; [13],11.5 MFI
same,fluorescence intensity,[10]; [14],12.5 MFI
same,fluorescence intensity,[10]; [15],14.5 MFI
same,fluorescence intensity,[10]; [16],19 MFI
same,fluorescence intensity,[11]; [17],24.5 MFI
same,fluorescence intensity,[11]; [18],23 MFI
same,fluorescence intensity,[11]; [19],24.5 MFI
same,fluorescence intensity,[11]; [20],24 MFI
same,fluorescence intensity,[11]; [13],24 MFI
same,fluorescence intensity,[11]; [14],24.5 MFI
same,fluorescence intensity,[11]; [15],30.5 MFI
same,fluorescence intensity,[11]; [16],81.8 MFI
same,fluorescence intensity,[12]; [17],15.5 MFI
same,fluorescence intensity,[12]; [18],14.8 MFI
same,fluorescence intensity,[12]; [19],15.5 MFI
same,fluorescence intensity,[12]; [20],15.5 MFI
same,fluorescence intensity,[12]; [13],16.8 MFI
same,fluorescence intensity,[12]; [14],16 MFI

# Given bar-delimited: entries from further up.
binder | measurement | setting | value
4-173.2 (protein) chain 1: QLQLQESGPGLVKPSETLSLTCAVSGGSINSNYWSWIRQPPGKGLDWIGRISGSGGSTDYNPSLKSRVTISTDTSKTQFSLKLRSVTAADTAVYYCGRGSYQIDYWGQGILVTVSS chain 2: QAALTQPPSMSGSPGQSVTISCTGTSSDIGGYNRVSWYQQYPGKAPKLMIYEVSKRPSGVSDRFSGSKSGNTASLTISGLQAADEADYYCSSYAGSKALFGGGTRLTVL | fluorescence intensity | [9]; [20] | 24.5 MFI
same | fluorescence intensity | [9]; [13] | 26 MFI
same | fluorescence intensity | [9]; [14] | 26.5 MFI
same | fluorescence intensity | [9]; [15] | 28 MFI
same | fluorescence intensity | [9]; [16] | 39 MFI
